Results on three substances are retold here after paper PMC12162846.

The chains behind the UniProt entries cited, without tags or fusion partners. Where a name states a change or a piece, a line headed by the entry shows the natural chain unless it says otherwise.
UniProt Q00987: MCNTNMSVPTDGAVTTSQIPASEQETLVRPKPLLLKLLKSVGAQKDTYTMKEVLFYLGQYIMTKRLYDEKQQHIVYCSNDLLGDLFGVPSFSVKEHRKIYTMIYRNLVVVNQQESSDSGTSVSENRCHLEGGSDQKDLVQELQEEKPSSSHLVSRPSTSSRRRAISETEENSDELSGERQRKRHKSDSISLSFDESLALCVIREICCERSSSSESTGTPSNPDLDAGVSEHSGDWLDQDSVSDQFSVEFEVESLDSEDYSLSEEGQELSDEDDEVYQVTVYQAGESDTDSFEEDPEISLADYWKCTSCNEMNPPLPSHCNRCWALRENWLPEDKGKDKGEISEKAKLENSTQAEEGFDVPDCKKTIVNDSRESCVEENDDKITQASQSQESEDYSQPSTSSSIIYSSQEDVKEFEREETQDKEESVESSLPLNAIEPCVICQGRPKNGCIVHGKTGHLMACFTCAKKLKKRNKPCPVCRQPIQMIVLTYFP

These are yes or no findings as the source states them, for the method shown. For part of these data: Binding can be weak; no strength is given. For part of these data: Tags and fused reporters may be left off the sequences shown. For part of these data: In cells and extracts the contact can be indirect.

Assay [1] addresses T1, GST-TRIM26 C-terminal PRYSPRY domain (aa301-539) (UniProt Q12899).
T1 sequence: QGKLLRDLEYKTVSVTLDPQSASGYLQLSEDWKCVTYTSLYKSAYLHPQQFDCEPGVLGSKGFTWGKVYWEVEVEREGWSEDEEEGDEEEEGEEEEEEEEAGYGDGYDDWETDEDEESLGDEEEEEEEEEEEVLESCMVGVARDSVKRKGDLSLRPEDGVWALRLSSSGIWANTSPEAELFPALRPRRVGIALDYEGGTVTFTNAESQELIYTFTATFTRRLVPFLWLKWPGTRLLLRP
Put plainly: pull-down; GST-TRIM26 fragments on beads, incubated with His-p53 or His-MDM2 at RT for 40 min; bound protein detected by Western blot with His antibody; both purified. On the technique in general: In western blotting, separated proteins are transferred to a membrane and probed.

Assay [2] addresses T2, GST-TRIM26 N-terminal domain (aa1-300) containing the coiled-coil domain (UniProt Q12899).
T2 sequence: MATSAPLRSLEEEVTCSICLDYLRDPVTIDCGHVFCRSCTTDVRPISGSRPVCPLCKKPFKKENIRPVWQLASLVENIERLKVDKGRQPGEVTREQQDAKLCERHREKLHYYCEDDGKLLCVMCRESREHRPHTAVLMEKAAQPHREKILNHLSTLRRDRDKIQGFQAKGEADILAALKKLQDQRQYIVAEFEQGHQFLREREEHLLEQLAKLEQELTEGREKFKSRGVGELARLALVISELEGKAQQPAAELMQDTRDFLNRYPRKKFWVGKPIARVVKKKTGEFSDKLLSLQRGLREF
Described as above.

For assay [3], the target named is T3, GST-TRIM26 N-terminal fragment (aa1-150) (UniProt Q12899).
T3 sequence: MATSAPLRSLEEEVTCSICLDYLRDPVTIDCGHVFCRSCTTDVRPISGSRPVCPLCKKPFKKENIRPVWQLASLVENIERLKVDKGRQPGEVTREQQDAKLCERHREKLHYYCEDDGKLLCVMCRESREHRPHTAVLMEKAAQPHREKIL
The assay is described as above.

Assay [4] has as its target T4, Flag-TRIM26 (UniProt Q12899).
T4 sequence: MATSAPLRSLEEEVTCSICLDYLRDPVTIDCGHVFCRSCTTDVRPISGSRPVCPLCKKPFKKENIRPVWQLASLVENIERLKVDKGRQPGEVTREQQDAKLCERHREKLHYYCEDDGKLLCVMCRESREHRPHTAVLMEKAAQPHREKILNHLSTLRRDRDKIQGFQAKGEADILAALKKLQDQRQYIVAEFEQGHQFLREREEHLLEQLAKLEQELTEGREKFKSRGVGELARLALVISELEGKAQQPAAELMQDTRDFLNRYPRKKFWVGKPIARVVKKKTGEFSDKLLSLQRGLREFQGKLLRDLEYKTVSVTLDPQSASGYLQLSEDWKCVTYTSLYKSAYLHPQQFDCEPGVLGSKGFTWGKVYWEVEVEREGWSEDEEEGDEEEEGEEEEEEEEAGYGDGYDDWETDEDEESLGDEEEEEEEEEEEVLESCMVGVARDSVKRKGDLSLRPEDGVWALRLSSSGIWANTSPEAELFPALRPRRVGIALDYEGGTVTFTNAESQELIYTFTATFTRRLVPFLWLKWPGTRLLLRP
Put plainly: co-IP; HCT116 p53+/+ cells transfected with GFP-p53 or HA-MDM2 and Flag-TRIM26 for 48 h, cell fractionation; nuclear fraction, Flag beads, Western blot.

In assay [5] the target is T4, Flag-TRIM26. Briefly: co-IP; HCT116 p53+/+ cells transfected with GFP-p53 or HA-MDM2 and Flag-TRIM26 for 48 h, cell fractionation; cytosolic fraction, Flag beads, Western blot.
In assay [6] the target is T5, Tripartite motif-containing protein 26 (endogenous) (human (endogenous in HCT116)) (UniProt Q12899).
T5 sequence: T4 sequence
Put plainly: co-IP; endogenous proteins of HCT116 p53+/+ cells; precipitated with TRIM26, p53 or MDM2 antibodies, Western blot.

On to His-MDM2 (from UniProt Q00987), for which the binding result in assay [1] is on record as “no binding”; in assay [2], “binds”; in assay [3], “no binding”.
For the substance HA-MDM2 (from UniProt Q00987), the binding result with Flag-TRIM26 [4] was “no binding (only nuclear fraction)”; with Flag-TRIM26 [5], “binds”.
Consider MDM2 (endogenous) (from UniProt Q00987), for which the binding entry in assay [6] is “binds”.
